{"source": "PubChem BioAssay AID652272 (Drosophila RNAi Screening Center, 2013)", "assay": "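Genes whose knock-down decreases or increases Hedgehog reporter output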 (primary screen)", "cell system": "Drosophila clone 8 (Cl8) cells", "knock-down reagent": "long dsRNA against Drosophila genes", "measured": "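Plate reader light from a firefly reporter under a ptc promoter fragment that responds to Hedgehog, with Renilla light as transfection reference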", "reading the numbers": "firefly Hh reporter signal: higher = more ptc reporter light; Renilla reference signal: higher = more Renilla control light", "active means": "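Called a hit if the two-replicate mean z-score lies below -2 or above +3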", "calls": "active = hit: reporter lowered or raised; inactive = not a hit", "note": "In all, the deposit lists about 21,000 reagents; below is a random part of those with a known target gene and a result. Of all reagents, 503 (2.4%) were called active. 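Raw plate light values, not normalised; calls rest on replicate z-scores that were not deposited; hits include reporter decreases as well as increases.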 A number with no mark means an inactive call. Not stated in the record: the amount of reagent, the time to read-out."}
The first 2 records, to show the layout:
{"gene knocked down": "CG3117", "dsRNA": "DRSC00568", "firefly Hh reporter signal, replicate 1": 1.64e5, "firefly Hh reporter signal, replicate 2": 92829, "Renilla reference signal, replicate 1": 3624, "Renilla reference signal, replicate 2": 2387}
{"gene knocked down": "CG6928", "dsRNA": "DRSC10749", "firefly Hh reporter signal, replicate 1": 1.19e5, "firefly Hh reporter signal, replicate 2": 51530, "Renilla reference signal, replicate 1": 4187, "Renilla reference signal, replicate 2": 2132}

The list itself, from the first entry:
{"gene knocked down": "CG3117", "dsRNA": "DRSC00568", "firefly Hh reporter signal, replicate 1": 1.64e5, "firefly Hh reporter signal, replicate 2": 92829, "Renilla reference signal, replicate 1": 3624, "Renilla reference signal, replicate 2": 2387}
{"gene knocked down": "CG6928", "dsRNA": "DRSC10749", "firefly Hh reporter signal, replicate 1": 1.19e5, "firefly Hh reporter signal, replicate 2": 51530, "Renilla reference signal, replicate 1": 4187, "Renilla reference signal, replicate 2": 2132}
{"gene knocked down": "CNBP", "dsRNA": "DRSC04116", "firefly Hh reporter signal, replicate 1": 81500, "firefly Hh reporter signal, replicate 2": 40228, "Renilla reference signal, replicate 1": 2412, "Renilla reference signal, replicate 2": 4293}
{"gene knocked down": "CNBP", "dsRNA": "DRSC04419", "firefly Hh reporter signal, replicate 1": 1.51e5, "firefly Hh reporter signal, replicate 2": 7.74e5, "firefly Hh reporter signal, replicate 3": 1.29e5, "Renilla reference signal, replicate 1": 6653, "Renilla reference signal, replicate 2": 42624}
{"gene knocked down": "Dhfr", "dsRNA": "DRSC16646", "firefly Hh reporter signal, replicate 1": 1.06e5, "firefly Hh reporter signal, replicate 2": 1.08e5, "Renilla reference signal, replicate 1": 3954, "Renilla reference signal, replicate 2": 2368}
{"gene knocked down": "TAF1C-like", "dsRNA": "DRSC04073", "firefly Hh reporter signal, replicate 1": 2.09e5, "firefly Hh reporter signal, replicate 2": 1.02e5, "Renilla reference signal, replicate 1": 7100, "Renilla reference signal, replicate 2": 4048}
{"gene knocked down": "CG14442", "dsRNA": "DRSC17935", "firefly Hh reporter signal, replicate 1": 62146, "firefly Hh reporter signal, replicate 2": 38922, "Renilla reference signal, replicate 1": 1881, "Renilla reference signal, replicate 2": 920}
{"gene knocked down": "CG42445", "dsRNA": "DRSC10858", "firefly Hh reporter signal, replicate 1": 1.44e5, "firefly Hh reporter signal, replicate 2": 1.02e5, "Renilla reference signal, replicate 1": 6038, "Renilla reference signal, replicate 2": 4316}
{"gene knocked down": "cpx", "dsRNA": "DRSC11999", "firefly Hh reporter signal, replicate 1": 2.61e5, "Renilla reference signal, replicate 1": 5666}
{"gene knocked down": "dgt2", "dsRNA": "DRSC02548", "firefly Hh reporter signal, replicate 1": 74146, "firefly Hh reporter signal, replicate 2": 50592, "Renilla reference signal, replicate 1": 1604, "Renilla reference signal, replicate 2": 4416}
{"gene knocked down": "CG14369", "dsRNA": "DRSC14831", "firefly Hh reporter signal, replicate 1": 73575, "firefly Hh reporter signal, replicate 2": 74620, "Renilla reference signal, replicate 1": 2389, "Renilla reference signal, replicate 2": 2295}
{"gene knocked down": "CG9701", "dsRNA": "DRSC11093", "firefly Hh reporter signal, replicate 1": 94122, "firefly Hh reporter signal, replicate 2": 66233, "Renilla reference signal, replicate 1": 4339, "Renilla reference signal, replicate 2": 2713}
{"gene knocked down": "Tbcb", "dsRNA": "DRSC06067", "firefly Hh reporter signal, replicate 1": 1.34e5, "firefly Hh reporter signal, replicate 2": 91328, "Renilla reference signal, replicate 1": 6520, "Renilla reference signal, replicate 2": 4454}
{"gene knocked down": "X11Lbeta", "dsRNA": "DRSC18156", "firefly Hh reporter signal, replicate 1": 66778, "firefly Hh reporter signal, replicate 2": 2.26e5, "Renilla reference signal, replicate 1": 2205, "Renilla reference signal, replicate 2": 8741}
{"gene knocked down": "X11Lbeta", "dsRNA": "DRSC18158", "firefly Hh reporter signal, replicate 1": 68410, "firefly Hh reporter signal, replicate 2": 1.96e5, "Renilla reference signal, replicate 1": 2314, "Renilla reference signal, replicate 2": 7539}
{"gene knocked down": "Sardh", "dsRNA": "DRSC06981", "firefly Hh reporter signal, replicate 1": 1.38e5, "firefly Hh reporter signal, replicate 2": 94114, "Renilla reference signal, replicate 1": 6284, "Renilla reference signal, replicate 2": 3920}
{"gene knocked down": "Akt", "dsRNA": "DRSC14108", "firefly Hh reporter signal, replicate 1": 87636, "firefly Hh reporter signal, replicate 2": 51004, "Renilla reference signal, replicate 1": 3942, "Renilla reference signal, replicate 2": 2340}
{"gene knocked down": "jhamt", "dsRNA": "DRSC01985", "firefly Hh reporter signal, replicate 1": 1.07e5, "firefly Hh reporter signal, replicate 2": 58812, "Renilla reference signal, replicate 1": 2779, "Renilla reference signal, replicate 2": 4464}
{"gene knocked down": "SmF", "dsRNA": "DRSC07397", "firefly Hh reporter signal, replicate 1": 60473, "firefly Hh reporter signal, replicate 2": 35370, "Renilla reference signal, replicate 1": 1921, "Renilla reference signal, replicate 2": 3376}
{"gene knocked down": "pdgy", "dsRNA": "DRSC19064", "firefly Hh reporter signal, replicate 1": 4.57e5, "firefly Hh reporter signal, replicate 2": 2.17e5, "Renilla reference signal, replicate 1": 27176, "Renilla reference signal, replicate 2": 4802}
{"gene knocked down": "pdgy", "dsRNA": "DRSC19341", "firefly Hh reporter signal, replicate 1": 1.26e5, "firefly Hh reporter signal, replicate 2": 1.09e5, "Renilla reference signal, replicate 1": 3005, "Renilla reference signal, replicate 2": 2856}
